According to paper PMC6639074:
These are yes or no findings as the source states them, for the method shown. Binding seen in cells or lysates may run through a third protein. These calls come from enrichment with a bait or labelling near it, and not all partners need be listed. For part of these data: Where a sequence is shown, tags or fusion partners need not be part of it. Values belong to the binder of their own block, whether it stands above or below them.

By UniProt entry, the sequences of proteins in these tests, tags left out. Where a name states a change or a piece, a line headed by the entry shows the natural chain unless it says otherwise. Chains listed by the source or under a name are the forms on record and can include a tag or linker.
Rab5A(Q79L)-BirA*-HA-MAO (P20339, form named): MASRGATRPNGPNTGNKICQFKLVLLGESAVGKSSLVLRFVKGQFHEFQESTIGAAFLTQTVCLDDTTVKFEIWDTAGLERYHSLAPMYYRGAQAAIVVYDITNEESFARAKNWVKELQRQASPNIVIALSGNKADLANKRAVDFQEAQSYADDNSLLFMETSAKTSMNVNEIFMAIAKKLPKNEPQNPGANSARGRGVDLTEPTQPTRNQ

What was measured:
[1] = biological target: Rab5A(Q79L)-BirA*-HA-MAO (human) (UniProt P20339); experiment: proximity labelling; MitoID with versions of Rab5A(Q79L), streptavidin precipitates immunoblotted for Rab5 effectors
[2] = biological target: Rab5A(Q79L)-BirA*-HA-MAO (human) (UniProt P20339); experiment: proximity labelling; MitoID: GTPase-BirA*-HA-MAO chimera on mitochondria of transiently transfected HEK293T cells, 50 uM biotin 18 h, streptavidin beads, mass spectrometry, biological triplicates; hits by WD scores and volcano plots against the GDP-locked forms
[3] = biological target: T1, Rab2A(S20N)-BirA*-HA-MAO (human) (UniProt P61019); experiment: as above
T1 sequence: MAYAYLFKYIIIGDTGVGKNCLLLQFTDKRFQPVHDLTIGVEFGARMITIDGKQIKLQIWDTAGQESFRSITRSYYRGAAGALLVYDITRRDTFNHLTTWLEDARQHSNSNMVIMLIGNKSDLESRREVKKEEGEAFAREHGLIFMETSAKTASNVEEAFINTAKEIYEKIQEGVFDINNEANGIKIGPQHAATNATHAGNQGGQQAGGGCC

binding [1]: binds
binding [2]: binds
B1: OSBPL9 (protein, UniProt Q96SU4 1-736)
chain: MASIMEGPLSKWTNVMKGWQYRWFVLDYNAGLLSYYTSKDKMMRGSRRGCVRLRGAVIGIDDEDDSTFTITVDQKTFHFQARDADEREKWIHALEETILRHTLQLQGLDSGFVPSVQDFDKKLTEADAYLQILIEQLKLFDDKLQNCKEDEQRKKIETLKETTNSMVESIKHCIVLLQIAKDQSNAEKHADGMISTINPVDAIYQPSPLEPVISTMPSQTVLPPEPVQLCKSEQRPSSLPVGPVLATLGHHQTPTPNSTGSGHSPPSSSLTSPSHVNLSPNTVPEFSYSSSEDEFYDADEFHQSGSSPKRLIDSSGSASVLTHSSSGNSLKRPDTTESLNSSLSNGTSDADLFDSHDDRDDDAEAGSVEEHKSVIMHLLSQVRLGMDLTKVVLPTFILERRSLLEMYADFFAHPDLFVSISDQKDPKDRMVQVVKWYLSAFHAGRKGSVAKKPYNPILGEIFQCHWTLPNDTEENTELVSEGPVPWVSKNSVTFVAEQVSHHPPISAFYAECFNKKIQFNAHIWTKSKFLGMSIGVHNIGQGCVSCLDYDEHYILTFPNGYGRSILTVPWVELGGECNINCSKTGYSANIIFHTKPFYGGKKHRITAEIFSPNDKKSFCSIEGEWNGVMYAKYATGENTVFVDTKKLPIIKKKVRKLEDQNEYESRSLWKDVTFNLKIRDIDAATEAKHRLEERQRAEARERKEKEIQWETRLFHEDGECWVYDEPLLKRLGAAKH

binding [3]: binds
B2: CLEC16A (protein, UniProt Q2KHT3 1-1053)
chain: MFGRSRSWVGGGHGKTSRNIHSLDHLKYLYHVLTKNTTVTEQNRNLLVETIRSITEILIWGDQNDSSVFDFFLEKNMFVFFLNILRQKSGRYVCVQLLQTLNILFENISHETSLYYLLSNNYVNSIIVHKFDFSDEEIMAYYISFLKTLSLKLNNHTVHFFYNEHTNDFALYTEAIKFFNHPESMVRIAVRTITLNVYKVSLDNQAMLHYIRDKTAVPYFSNLVWFIGSHVIELDDCVQTDEEHRNRGKLSDLVAEHLDHLHYLNDILIINCEFLNDVLTDHLLNRLFLPLYVYSLENQDKGGERPKISLPVSLYLLSQVFLIIHHAPLVNSLAEVILNGDLSEMYAKTEQDIQRSSAKPSIRCFIKPTETLERSLEMNKHKGKRRVQKRPNYKNVGEEEDEEKGPTEDAQEDAEKAKGTEGGSKGIKTSGESEEIEMVIMERSKLSELAASTSVQEQNTTDEEKSAAATCSESTQWSRPFLDMVYHALDSPDDDYHALFVLCLLYAMSHNKGMDPEKLERIQLPVPNAAEKTTYNHPLAERLIRIMNNAAQPDGKIRLATLELSCLLLKQQVLMSAGCIMKDVHLACLEGAREESVHLVRHFYKGEDIFLDMFEDEYRSMTMKPMNVEYLMMDASILLPPTGTPLTGIDFVKRLPCGDVEKTRRAIRVFFMLRSLSLQLRGEPETQLPLTREEDLIKTDDVLDLNNSDLIACTVITKDGGMVQRFLAVDIYQMSLVEPDVSRLGWGVVKFAGLLQDMQVTGVEDDSRALNITIHKPASSPHSKPFPILQATFIFSDHIRCIIAKQRLAKGRIQARRMKMQRIAALLDLPIQPTTEVLGFGLGSSTSTQHLPFRFYDQGRRGSSDPTVQRSVFASVDKVPGFAVAQCINQHSSPSLSSQSPPSASGSPSGSGSTSHCDSGGTSSSSTPSTAQSPADAPMSPELPKPHLPDQLVIVNETEADSKPSKNVARSAAVETASLSPSLVPARQPTISLLCEDTADTLSVESLTLVPPVDPHSLRSLTGMPPLSTPAAACTEPVGEEAACAEPVGTAED
